Drawing on article PMC3471868, this text covers binding for 3 substances.

Protein sequences, listed by entry. Tags and fused reporters are not part of them.
UniProt P45973: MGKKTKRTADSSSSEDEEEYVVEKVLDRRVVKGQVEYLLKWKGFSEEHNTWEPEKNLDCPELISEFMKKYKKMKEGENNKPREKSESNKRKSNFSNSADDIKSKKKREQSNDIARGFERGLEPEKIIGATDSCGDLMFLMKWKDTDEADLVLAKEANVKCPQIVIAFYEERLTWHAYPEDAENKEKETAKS
UniProt Q13185: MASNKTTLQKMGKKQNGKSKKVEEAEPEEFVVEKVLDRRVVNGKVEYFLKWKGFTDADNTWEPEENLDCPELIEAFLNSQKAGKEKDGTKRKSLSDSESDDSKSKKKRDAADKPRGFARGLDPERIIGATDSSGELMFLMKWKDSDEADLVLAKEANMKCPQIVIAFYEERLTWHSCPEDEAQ
UniProt P83916: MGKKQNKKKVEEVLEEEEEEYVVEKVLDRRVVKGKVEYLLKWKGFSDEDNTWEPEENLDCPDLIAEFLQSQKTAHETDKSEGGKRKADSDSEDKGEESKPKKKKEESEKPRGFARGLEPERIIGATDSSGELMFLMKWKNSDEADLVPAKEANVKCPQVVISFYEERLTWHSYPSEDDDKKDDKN

Results are given in words; binding and its absence hold for the method and conditions named. Binding seen in cells or lysates may run through a third protein. Some entries that bind do so weakly or less than the wild type. Tags and fused reporters may be left off the sequences shown.

This assay addresses T1, GST-N’-RNF123, wild-type N-terminal segment of RNF123 (residues 59 to 326) (UniProt Q5XPI4).
T1 sequence: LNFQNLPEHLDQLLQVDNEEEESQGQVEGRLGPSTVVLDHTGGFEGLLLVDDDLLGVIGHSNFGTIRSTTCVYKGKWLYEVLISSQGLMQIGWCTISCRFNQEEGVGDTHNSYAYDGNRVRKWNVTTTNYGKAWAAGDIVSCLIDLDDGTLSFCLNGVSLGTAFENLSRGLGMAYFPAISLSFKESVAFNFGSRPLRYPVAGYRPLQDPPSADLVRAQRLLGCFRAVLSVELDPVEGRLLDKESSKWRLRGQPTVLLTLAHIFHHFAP
Briefly: pull-down; GST or GST-N’-RNF123 (wild type or V313D) on glutathione agarose beads, incubated with pre-cleared HeLa lysate (50 mM Tris-Cl pH 7.5, 150 mM NaCl, 10% glycerol, 0.5% NP-40) for 12 h at 4°C; bound proteins detected by western blot with antibodies to HP1 proteins; only the target purified.
As for “heterochromatin protein 1α (from UniProt P45973 1-191)”, the binding entry is “binds”.

Take “heterochromatin protein 1γ (from UniProt Q13185 1-183)”: the binding result is recorded as “binds”.

For the substance “heterochromatin protein 1β (from UniProt P83916 1-185)”, the binding result is on record as “binds”.
